Data as given in PubChem BioAssay AID720703 (Peter MacCallum Cancer Centre, 2013).
Shown is an unselected part of 714 reagents tested. Of all reagents, 50 (7%) got an active call. 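Chosen pools sit at both extremes, so both low and high scores count as candidates; some pools appear more than once.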 Some reagents were tested in more than one well and are listed for each.

- Test: 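Find kinases that boost or dampen angiotensin II-triggered EGFR transactivation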 (primary screen)
- System: immortalised, SV40-transformed mammary epithelial cells from human, with stable expression of tagged AT1R
- Reagents: siRNA pool against human genes, 40 nM siRNA pool per well
- Duration: 72 h from transfection to lysis and read-out
- Challenge: angiotensin II stimulation (dose and duration not given); EGFR inhibitor AG1478 also listed
- Measurement: 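ERK1/2 phosphorylation corrected for confluency, given as a robust z-score, mean over two replicate plates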
- Scale: phospho-ERK z-score: higher = more ERK phosphorylation after angiotensin II, relative to plate
- Active means: 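Pools were ordered by robust z-score and 50 top-ranked pools, whether they raised or lowered the signal, were chosen for secondary testing; no numeric threshold was reported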
- Calls: active = picked for secondary screen; inactive = not picked

gene,"phospho-ERK z-score, replicate mean",outcome
PRKY (protein kinase Y-linked (pseudogene)),-1.4,inactive
OXSR1 (oxidative stress responsive kinase 1),1.14,inactive
MVK (mevalonate kinase),0.5,inactive
DSTYK (dual serine/threonine and tyrosine protein kinase),0.52,inactive
PTK7 (protein tyrosine kinase 7 (inactive)),-0.09,inactive
PKLR (pyruvate kinase L/R),-0.82,inactive
ERBB2 (erb-b2 receptor tyrosine kinase 2),-1.16,active
PRKG2 (protein kinase cGMP-dependent 2),-0.33,inactive
MPP2 (MAGUK p55 scaffold protein 2),0.09,inactive
CAMK1D (calcium/calmodulin dependent protein kinase ID),1.58,inactive
"HCK (HCK proto-oncogene, Src family tyrosine kinase)",0.5,inactive
CDKN2D (cyclin dependent kinase inhibitor 2D),1.66,inactive
HIPK1 (homeodomain interacting protein kinase 1),-0.63,inactive
CKS2 (CDC28 protein kinase regulatory subunit 2),0.2,inactive
PHKA1 (phosphorylase kinase regulatory subunit alpha 1),-0.48,inactive
MAP3K19 (mitogen-activated protein kinase kinase kinase 19),-0.03,inactive
PI4K2A (phosphatidylinositol 4-kinase type 2 alpha),0.26,inactive
GRK6 (G protein-coupled receptor kinase 6),-0.16,inactive
ITK (IL2 inducible T cell kinase),70.3,inactive
STK32C (serine/threonine kinase 32C),0.08,inactive
PIP5K1A (phosphatidylinositol-4-phosphate 5-kinase type 1 alpha),0.82,inactive
GRK1 (G protein-coupled receptor kinase 1),-1.29,active
PRKCA (protein kinase C alpha),0.48,inactive
RPS6KA5 (ribosomal protein S6 kinase A5),1.18,inactive
COASY (Coenzyme A synthase),3.8,active
CDK8 (cyclin dependent kinase 8),1.14,inactive
MAP3K10 (mitogen-activated protein kinase kinase kinase 10),0.54,inactive
MPP3 (MAGUK p55 scaffold protein 3),1.56,inactive
PTK6 (protein tyrosine kinase 6),-0.05,inactive
PRKCH (protein kinase C eta),-1.19,active
TYRO3 (TYRO3 protein tyrosine kinase),1.48,inactive
TSSK1B (testis specific serine kinase 1B),-0.62,inactive
TSSK1B (testis specific serine kinase 1B),-0.11,inactive
XYLB (xylulokinase),0.76,inactive
"GUCY2EP (guanylate cyclase 2E, pseudogene)",0.58,inactive
NTRK1 (neurotrophic receptor tyrosine kinase 1),1.45,inactive
ETNK2 (ethanolamine kinase 2),-0.08,inactive
BMPR2 (bone morphogenetic protein receptor type 2),0.58,inactive
MAP3K2 (mitogen-activated protein kinase kinase kinase 2),-0.8,inactive
ROR1 (ROR family WNT receptor 1),-1.12,inactive
PIK3C2G,0.7,inactive
THNSL1 (threonine synthase like 1),0.42,inactive
WNK2 (WNK lysine deficient protein kinase 2),0.75,inactive
NEK11 (NIMA related kinase 11),0.78,inactive
PXK (PX domain containing serine/threonine kinase like),0.96,inactive
MAP3K4 (mitogen-activated protein kinase kinase kinase 4),0.32,inactive
RIOK1 (RIO kinase 1),0.22,inactive
MARK2 (microtubule affinity regulating kinase 2),-0.03,inactive
MAST3 (microtubule associated serine/threonine kinase 3),0.32,inactive
SLK (STE20 like kinase),-1.12,inactive
PDIK1L (PDLIM1 interacting kinase 1 like),-0.74,inactive
EXOSC10 (exosome component 10),0.01,inactive
ULK2 (unc-51 like autophagy activating kinase 2),-0.02,inactive
PIK3R2 (phosphoinositide-3-kinase regulatory subunit 2),1.81,inactive
"ARAF (A-Raf proto-oncogene, serine/threonine kinase)",0.83,inactive
EPHA10 (EPH receptor A10),0.05,inactive
PRKAA2 (protein kinase AMP-activated catalytic subunit alpha 2),0.38,inactive
PRKAB1 (protein kinase AMP-activated non-catalytic subunit beta 1),-0.02,inactive
AURKA (aurora kinase A),0.42,inactive
CHKA (choline kinase alpha),3.88,active
SGK3 (serum/glucocorticoid regulated kinase family member 3),1.38,inactive
MAP4K3 (mitogen-activated protein kinase kinase kinase kinase 3),-0.16,inactive
"CKM (creatine kinase, M-type)",-0.6,inactive
PRKCG (protein kinase C gamma),1.39,inactive
CDK20 (cyclin dependent kinase 20),-1.17,inactive
CILK1 (ciliogenesis associated kinase 1),1.1,inactive
TAOK2 (TAO kinase 2),1.15,inactive
TRIM27 (tripartite motif containing 27),0.28,inactive
CASK (calcium/calmodulin dependent serine protein kinase),-1.05,inactive
PRKCE (protein kinase C epsilon),0.84,inactive
WEE1 (WEE1 G2 checkpoint kinase),-0.27,inactive
JAK3 (Janus kinase 3),-1.07,inactive
RIPK2 (receptor interacting serine/threonine kinase 2),-0.4,inactive
IKBKB (inhibitor of nuclear factor kappa B kinase subunit beta),1.57,inactive
PRKAR2A,-0.72,inactive
